# Results are given in words; binding and its absence hold for the method and conditions named. In cells and extracts the contact can be indirect. Binding can be weak; no strength is given.
# Chains of the proteins cited; added tags and fusions are not shown. Lines headed by an entry give the natural chain unless they say otherwise; changes in a name come on top.
# UniProt Q16666: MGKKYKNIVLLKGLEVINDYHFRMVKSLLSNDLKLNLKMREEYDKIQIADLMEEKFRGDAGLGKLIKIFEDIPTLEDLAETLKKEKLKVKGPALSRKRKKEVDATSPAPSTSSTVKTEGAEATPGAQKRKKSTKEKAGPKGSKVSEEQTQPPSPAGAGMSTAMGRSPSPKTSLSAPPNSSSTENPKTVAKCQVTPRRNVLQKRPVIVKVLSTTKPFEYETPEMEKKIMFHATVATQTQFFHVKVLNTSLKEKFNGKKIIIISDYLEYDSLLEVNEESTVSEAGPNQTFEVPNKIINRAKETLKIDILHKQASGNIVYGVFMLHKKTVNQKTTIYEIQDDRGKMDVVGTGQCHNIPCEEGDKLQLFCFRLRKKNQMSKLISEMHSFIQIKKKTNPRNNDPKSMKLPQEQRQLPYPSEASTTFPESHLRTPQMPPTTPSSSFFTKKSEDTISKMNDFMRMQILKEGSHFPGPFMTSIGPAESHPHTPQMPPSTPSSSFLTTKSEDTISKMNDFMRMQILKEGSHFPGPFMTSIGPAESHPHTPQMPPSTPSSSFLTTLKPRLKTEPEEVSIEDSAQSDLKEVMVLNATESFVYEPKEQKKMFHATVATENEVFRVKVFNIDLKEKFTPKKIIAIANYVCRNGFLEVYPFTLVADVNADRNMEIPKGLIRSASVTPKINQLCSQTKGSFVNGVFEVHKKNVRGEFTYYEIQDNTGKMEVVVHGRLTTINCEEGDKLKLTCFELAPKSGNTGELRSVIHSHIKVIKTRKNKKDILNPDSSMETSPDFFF
# UniProt Q9H9B1: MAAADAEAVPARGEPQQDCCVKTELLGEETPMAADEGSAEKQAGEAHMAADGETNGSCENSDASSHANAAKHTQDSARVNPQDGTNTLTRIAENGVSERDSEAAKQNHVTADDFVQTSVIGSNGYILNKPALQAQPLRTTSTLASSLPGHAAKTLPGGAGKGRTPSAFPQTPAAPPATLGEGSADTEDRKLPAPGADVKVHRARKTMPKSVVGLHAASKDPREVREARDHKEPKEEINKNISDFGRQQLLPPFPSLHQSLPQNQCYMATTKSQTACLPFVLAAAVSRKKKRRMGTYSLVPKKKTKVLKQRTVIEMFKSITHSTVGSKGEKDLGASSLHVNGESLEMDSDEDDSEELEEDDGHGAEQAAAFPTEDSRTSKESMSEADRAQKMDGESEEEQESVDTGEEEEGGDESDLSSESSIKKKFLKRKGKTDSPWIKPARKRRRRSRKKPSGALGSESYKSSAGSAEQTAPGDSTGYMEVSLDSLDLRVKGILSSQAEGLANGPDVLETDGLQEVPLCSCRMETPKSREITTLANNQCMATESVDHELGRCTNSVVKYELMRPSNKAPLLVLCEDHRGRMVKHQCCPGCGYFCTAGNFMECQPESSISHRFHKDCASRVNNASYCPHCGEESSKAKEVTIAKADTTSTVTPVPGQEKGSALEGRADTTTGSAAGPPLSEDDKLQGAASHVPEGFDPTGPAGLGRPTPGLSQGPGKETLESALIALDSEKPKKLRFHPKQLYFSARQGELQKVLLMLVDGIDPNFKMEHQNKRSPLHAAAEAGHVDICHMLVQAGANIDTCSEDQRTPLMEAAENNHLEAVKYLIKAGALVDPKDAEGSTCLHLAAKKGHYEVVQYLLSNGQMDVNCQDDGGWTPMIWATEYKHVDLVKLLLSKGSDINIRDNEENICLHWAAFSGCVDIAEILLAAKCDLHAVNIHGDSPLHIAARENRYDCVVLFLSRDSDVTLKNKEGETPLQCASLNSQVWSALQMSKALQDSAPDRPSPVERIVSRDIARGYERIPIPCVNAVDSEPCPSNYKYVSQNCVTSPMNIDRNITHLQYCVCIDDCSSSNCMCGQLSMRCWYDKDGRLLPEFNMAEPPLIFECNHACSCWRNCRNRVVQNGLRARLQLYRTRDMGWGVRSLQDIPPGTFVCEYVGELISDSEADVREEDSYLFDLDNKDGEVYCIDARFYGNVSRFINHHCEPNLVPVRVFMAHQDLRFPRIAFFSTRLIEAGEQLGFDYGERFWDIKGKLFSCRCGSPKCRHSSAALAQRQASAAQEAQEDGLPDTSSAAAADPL
# UniProt Q9H5I1: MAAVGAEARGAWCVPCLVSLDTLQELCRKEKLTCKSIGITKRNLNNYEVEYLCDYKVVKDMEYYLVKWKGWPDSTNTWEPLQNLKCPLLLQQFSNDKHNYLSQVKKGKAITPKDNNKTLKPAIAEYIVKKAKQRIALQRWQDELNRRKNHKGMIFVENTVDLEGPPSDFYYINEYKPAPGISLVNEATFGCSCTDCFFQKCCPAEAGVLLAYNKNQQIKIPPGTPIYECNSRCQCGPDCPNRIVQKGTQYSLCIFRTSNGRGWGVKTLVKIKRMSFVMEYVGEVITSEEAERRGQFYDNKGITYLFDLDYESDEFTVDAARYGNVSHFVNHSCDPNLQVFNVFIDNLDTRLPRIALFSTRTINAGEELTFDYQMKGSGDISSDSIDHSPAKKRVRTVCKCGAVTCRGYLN
# B1: SETDB2 (enzyme, UniProt Q96T68 1-719)
# chain: MGEKNGDAKTFWMELEDDGKVDFIFEQVQNVLQSLKQKIKDGSATNKEYIQAMILVNEATIINSSTSIKGASQKEVNAQSSDPMPVTQKEQENKSNAFPSTSCENSFPEDCTFLTTENKEILSLEDKVVDFREKDSSSNLSYQSHDCSGACLMKMPLNLKGENPLQLPIKCHFQRRHAKTNSHSSALHVSYKTPCGRSLRNVEEVFRYLLETECNFLFTDNFSFNTYVQLARNYPKQKEVVSDVDISNGVESVPISFCNEIDSRKLPQFKYRKTVWPRAYNLTNFSSMFTDSCDCSEGCIDITKCACLQLTARNAKTSPLSSDKITTGYKYKRLQRQIPTGIYECSLLCKCNRQLCQNRVVQHGPQVRLQVFKTEQKGWGVRCLDDIDRGTFVCIYSGRLLSRANTEKSYGIDENGRDENTMKNIFSKKRKLEVACSDCEVEVLPLGLETHPRTAKTEKCPPKFSNNPKELTVETKYDNISRIQYHSVIRDPESKTAIFQHNGKKMEFVSSESVTPEDNDGFKPPREHLNSKTKGAQKDSSSNHVDEFEDNLLIESDVIDITKYREETPPRSRCNQATTLDNQNIKKAIEVQIQKPQEGRSTACQRQQVFCDEELLSETKNTSSDSLTKFNKGNVFLLDATKEGNVGRFLNHSCCPNLLVQNVFVETHNRNFPLVAFFTNRYVKARTELTWDYGYEAGTVPEKEIFCQCGVNKCRKKIL
# B2: Suppressor of variegation 3–9 homolog 1 (SUV39H1) (enzyme, UniProt O43463 1-412)
# chain: MAENLKGCSVCCKSSWNQLQDLCRLAKLSCPALGISKRNLYDFEVEYLCDYKKIREQEYYLVKWRGYPDSESTWEPRQNLKCVRILKQFHKDLERELLRRHHRSKTPRHLDPSLANYLVQKAKQRRALRRWEQELNAKRSHLGRITVENEVDLDGPPRAFVYINEYRVGEGITLNQVAVGCECQDCLWAPTGGCCPGASLHKFAYNDQGQVRLRAGLPIYECNSRCRCGYDCPNRVVQKGIRYDLCIFRTDDGRGWGVRTLEKIRKNSFVMEYVGEIITSEEAERRGQIYDRQGATYLFDLDYVEDVYTVDAAYYGNISHFVNHSCDPNLQVYNVFIDNLDERLPRIAFFATRTIRAGEELTFDYNMQVDPVDMESTRMDSNFGLAGLPGSPKKRVRIECKCGTESCRKYLF
# Target: His-tagged full-length IFI16 (C-terminal His/DDK tagged IFI16) (human) (UniProt Q16666)
# Assay: pull-down; His-tag pulldown of His/DDK tagged IFI16 from transfected 293T cells (which lack IFI16) on HisPur cobalt resin (ProFound Pull-Down PolyHis kit); control plasmid as control; western blot of elutions
row,binding,Molecule
1,binds,G9a-like protein (GLP) (from UniProt Q9H9B1 1-1298) (enzyme)
2,no binding,RIZ1 (from UniProt Q13029-1 1-1718) (enzyme)
3,no binding,SUV39H2 (from UniProt Q9H5I1 1-410) (enzyme)
4,no binding,B1
5,binds,B2
